Results deposited as PubChem BioAssay AID743454 (Peter MacCallum Cancer Centre, 2014)
This is one part, drawn at random, of about 18,000 deposited reagents. Of all reagents, 450 (2.5%) were called active. 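Single biological run; no consistent viability z cut-off exists, so the class columns, not z-scores, define the calls.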 Unmarked entries are inactive.

Purpose: 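Search for knock-downs that restore vorinostat killing in resistant colon cancer cells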 (primary screen)
Cells: human HCT116-VR colon cancer cells, selected for vorinostat resistance
Knock-down reagent: siRNA pool against human genes, 40 nM siRNA pool
Time to read-out: vorinostat for 24 h, read-out about 72 h after transfection
Challenge: vorinostat at 2.5 µM final
Measured: 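Cell viability by CellTiter-Fluor and caspase 3/7 activity by luminescence, each scaled to mock wells per plate, duplicates averaged, then robust z-scored over all plates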
Reading the numbers: viability robust z-score: higher = more viable cells than screen typical; caspase robust z-score: higher = more caspase 3/7 activity than screen typical
Active means: 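a knock-down is a hit when classed RV1 or RV2 for lowered viability, or CA1 or CA2 for caspase activation; those lethal without drug were dropped; hits were retested singly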

The first 2 entries, ahead of the listing:
| gene | viability hit class | caspase hit class | viability robust z-score | caspase robust z-score |
| --- | --- | --- | --- | --- |
| MRPS30 (mitochondrial ribosomal protein S30) | no change | no change | 0.74 | 0.38 |
| MYH2 (myosin heavy chain 2) | no change | no change | 0.46 | 0.08 |

The listing, from the start:
| gene | viability hit class | caspase hit class | viability robust z-score | caspase robust z-score |
| --- | --- | --- | --- | --- |
| MRPS30 (mitochondrial ribosomal protein S30) | no change | no change | 0.74 | 0.38 |
| MYH2 (myosin heavy chain 2) | no change | no change | 0.46 | 0.08 |
| PROKR1 (prokineticin receptor 1) | no change | no change | -0.92 | -0.58 |
| TMEM71 (transmembrane protein 71) | no change | no change | -0.48 | -0.24 |
| PCDHA4 (protocadherin alpha 4) | no change | no change | -1.04 | -0.82 |
| GNG10 (G protein subunit gamma 10) | no change | no change | 0.15 | -0.57 |
| SLAIN1 (SLAIN family member 1) | no change | no change | -0.66 | -0.1 |
| VAC14 (VAC14 component of PIKFYVE complex) | no change | no change | 0.77 | 0.98 |
| VPS52 (VPS52 subunit of GARP complex) | RV2 (reduced viability) (active) | CA2 (caspase activation) | -4.16 | 8.01 |
| ERG (ETS transcription factor ERG) | no change | no change | 1.38 | 1.17 |
| ACOT8 (acyl-CoA thioesterase 8) | no change | no change | 0.57 | 3.65 |
| USP31 (ubiquitin specific peptidase 31) | no change | no change | -0.28 | 0.93 |
| RGS10 (regulator of G protein signaling 10) | no change | no change | 1.66 | 1.61 |
| LTA (lymphotoxin alpha) | no change | no change | -0.75 | -0.56 |
| SPANXN1 (SPANX family member N1) | no change | no change | 0.63 | -0.46 |
| OR14J1 (olfactory receptor family 14 subfamily J member 1) | no change | no change | 0.55 | -0.77 |
| CD177 (CD177 molecule) | no change | no change | -0.34 | -0.84 |
| UBAC2 (UBA domain containing 2) | no change | no change | 1.44 | 0.34 |
| CDS1 (CDP-diacylglycerol synthase 1) | no change | no change | 0.17 | -0.28 |
| DDX21 (DExD-box helicase 21) | no change | no change | -1.73 | -0.71 |
| ZNF676 (zinc finger protein 676) | no change | no change | 0.06 | -0.2 |
| CELA3B (chymotrypsin like elastase 3B) | no change | no change | 0.08 | -0.16 |
| SIX4 (SIX homeobox 4) | no change | no change | -0.3 | 0.65 |
